Assay results published in paper PMC3522597.
These are yes or no findings as the source states them, for the method shown. Binding seen in cells or lysates may run through a third protein. Binding calls can cover weak binding; strength is not graded here.

Chains of the proteins cited; added tags and fusions are not shown. Lines headed by an entry give the natural chain unless they say otherwise; changes in a name come on top.
UniProt Q13153: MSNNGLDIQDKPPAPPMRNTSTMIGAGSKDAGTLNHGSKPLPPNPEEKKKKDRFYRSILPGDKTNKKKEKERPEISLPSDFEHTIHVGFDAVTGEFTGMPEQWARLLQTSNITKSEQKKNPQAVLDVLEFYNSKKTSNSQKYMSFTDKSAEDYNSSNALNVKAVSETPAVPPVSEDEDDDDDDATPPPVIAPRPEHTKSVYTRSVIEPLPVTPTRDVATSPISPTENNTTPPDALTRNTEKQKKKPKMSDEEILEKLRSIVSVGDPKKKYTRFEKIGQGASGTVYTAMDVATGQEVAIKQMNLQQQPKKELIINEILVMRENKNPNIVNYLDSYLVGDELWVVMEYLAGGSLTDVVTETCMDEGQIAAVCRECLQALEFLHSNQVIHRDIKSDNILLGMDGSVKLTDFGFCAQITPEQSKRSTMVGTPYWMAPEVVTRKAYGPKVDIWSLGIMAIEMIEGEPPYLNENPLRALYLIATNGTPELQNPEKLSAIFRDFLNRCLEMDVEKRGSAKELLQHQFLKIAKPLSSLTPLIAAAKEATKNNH
UniProt P60953: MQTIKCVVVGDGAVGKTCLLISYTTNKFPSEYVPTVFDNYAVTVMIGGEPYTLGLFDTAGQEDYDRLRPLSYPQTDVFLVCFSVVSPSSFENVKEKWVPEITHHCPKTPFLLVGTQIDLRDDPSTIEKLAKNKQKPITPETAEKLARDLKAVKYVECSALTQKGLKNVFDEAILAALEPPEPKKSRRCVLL

Target: p21-activated kinase (PAK) Rac1 binding domain-GST fusion (UniProt Q13153)
Experiment: pull-down; GST effector-domain fusion on beads incubated with Du145-Mock or -KAI1/CD82 cell lysate (RIPA: 1% NP40, 0.2% SDS, 150 mM NaCl, 25 mM HEPES) at 4°C for 45 min, three washes, immunoblot; cells in regular culture, serum-starved or HGF-treated; only the target purified

**Q.** How did the binding turn out when “Cdc42, GTP-bound (from UniProt P60953 1-191)” was run?
**A.** Its binding is “binds”.
